Results taken from paper PMC5004903.
No constants are given. Whether binding was seen depends on the method and setting. In cells and extracts the contact can be indirect. Some results given as binding are weak or reduced against the parent protein; the word gives no strength. For some of these results: Where a sequence is shown, tags or fusion partners need not be part of it. Values belong to the binder of their own block, whether it stands above or below them.

What was measured:
[1] = biological target: T1, FS2-tagged C17ORF96 homologue (UniProt Q7TNS8); experiment: co-IP; mESC lines stably expressing FS2-AEBP2 or FS2-C17ORF96 homologue; immunoprecipitation with the Flag-2xStrepII (FS2) antibody or the JARID2 antibody, immunoblot
T1 sequence: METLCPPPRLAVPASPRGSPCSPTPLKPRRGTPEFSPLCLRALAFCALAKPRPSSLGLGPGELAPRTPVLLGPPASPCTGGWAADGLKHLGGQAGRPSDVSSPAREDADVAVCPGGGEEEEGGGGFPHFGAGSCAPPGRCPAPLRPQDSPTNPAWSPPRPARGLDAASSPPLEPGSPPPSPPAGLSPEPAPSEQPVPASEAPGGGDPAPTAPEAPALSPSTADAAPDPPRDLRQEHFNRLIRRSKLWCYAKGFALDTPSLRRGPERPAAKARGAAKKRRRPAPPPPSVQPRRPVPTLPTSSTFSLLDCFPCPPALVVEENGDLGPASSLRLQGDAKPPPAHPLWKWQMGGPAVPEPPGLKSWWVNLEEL

[2] = biological target: T2, JARID2 (endogenous) (mouse (endogenous in E14 mESCs)), Q62315; experiment: co-IP; co-immunoprecipitation of endogenous PRC2 subunits in Aebp2 WT and Aebp2 tr/tr mESCs, immunoblot; details: remark: other sources report otherwise
T2 chain: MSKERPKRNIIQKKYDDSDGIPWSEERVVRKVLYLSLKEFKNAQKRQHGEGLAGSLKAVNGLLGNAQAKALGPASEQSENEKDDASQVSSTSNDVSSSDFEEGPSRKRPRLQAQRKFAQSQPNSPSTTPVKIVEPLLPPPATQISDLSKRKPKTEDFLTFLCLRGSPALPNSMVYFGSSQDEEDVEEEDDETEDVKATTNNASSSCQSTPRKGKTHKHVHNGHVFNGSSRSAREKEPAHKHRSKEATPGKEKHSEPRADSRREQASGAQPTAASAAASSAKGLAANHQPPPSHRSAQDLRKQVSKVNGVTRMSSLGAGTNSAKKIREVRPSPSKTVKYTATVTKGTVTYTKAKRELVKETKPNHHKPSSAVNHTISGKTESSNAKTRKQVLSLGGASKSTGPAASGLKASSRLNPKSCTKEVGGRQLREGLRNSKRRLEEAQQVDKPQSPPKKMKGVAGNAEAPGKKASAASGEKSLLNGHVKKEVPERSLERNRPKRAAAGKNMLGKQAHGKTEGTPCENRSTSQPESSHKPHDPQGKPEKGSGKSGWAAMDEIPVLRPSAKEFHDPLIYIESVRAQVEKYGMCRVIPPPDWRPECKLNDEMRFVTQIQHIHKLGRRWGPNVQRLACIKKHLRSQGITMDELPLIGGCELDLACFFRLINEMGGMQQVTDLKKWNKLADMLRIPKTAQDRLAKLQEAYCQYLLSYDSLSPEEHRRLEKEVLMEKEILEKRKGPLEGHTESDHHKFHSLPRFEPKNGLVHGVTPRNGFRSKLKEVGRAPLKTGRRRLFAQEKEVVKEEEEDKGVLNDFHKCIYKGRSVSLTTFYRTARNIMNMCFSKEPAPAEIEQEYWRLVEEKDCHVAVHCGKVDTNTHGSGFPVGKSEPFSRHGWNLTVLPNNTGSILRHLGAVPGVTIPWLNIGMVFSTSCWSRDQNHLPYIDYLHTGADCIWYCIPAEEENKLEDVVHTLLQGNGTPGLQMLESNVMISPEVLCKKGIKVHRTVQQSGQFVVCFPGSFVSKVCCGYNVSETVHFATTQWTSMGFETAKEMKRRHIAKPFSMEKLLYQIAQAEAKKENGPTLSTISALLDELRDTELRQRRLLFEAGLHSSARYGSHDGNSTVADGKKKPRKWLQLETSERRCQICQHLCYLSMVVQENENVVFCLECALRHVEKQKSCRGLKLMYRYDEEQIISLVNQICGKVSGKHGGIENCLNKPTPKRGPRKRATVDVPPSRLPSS

[3] = biological target: EZH2 (endogenous) (mouse (endogenous in E14 mESCs)), Q61188; experiment: as above; details: remark: other sources report otherwise

B1: AEBP2 (endogenous) (protein, UniProt Q9Z248 1-504)
chain: MAAALADMADLEELSRLSPLSPGSPGPAARGRAEPPEEEEEEDDEEAEAEAVAALLLNGGAGGGAGGGEAETMSEPSPESASQAGGDEDEDEEDDEDEGSSSGGAEEESSAESLVGSSSGGCSGDETRSLSPGAASSSSGDGDGKEGLEEPKGPRGGPGGPGSSGGGSSSSSVVSSGGDEGYGTGGGGSSATSGGRRGSLEMSSDGEPLSRMDSEDSISSTLMDIDSTISSGRSTPAMMNGQGSTTASSKHIAYNCCWDQCQACFNSSPDLADHIRSIHVDGQRGGVFVCLWKGCKVYNTPSTSQSWLQRHMLTHSGDKPFKCVVGGCNASFASQGGLARHVPTHFSQQNSSKVSSQPKAKEESPSKAGMNKRRKLKNKRRRSLPRPHDFFDAQTLDAIRHRAICFNLSAHIESLGKGHSVVFHSTVIAKRKEESGKIKLLLHWMPEDILPDVWVNESERHQLKTKVVHLSKLPKDTALLLDPNIYRTMPQKRLKRFDILNFPR
binding [1]: no binding

B3: JARID2 (endogenous), Q62315 1-1234 (protein)
chain: T2 chain
binding [3]: binds

Now from value to binder:

binding [2]: binds
B2: PCL2 (MTF2), endogenous, Q02395 1-593 (protein)
chain: MRDSTGAGNSLVHKRSPLRRNQKTSASLNKLSLQDGHKAKKPACKFEEGQDVLARWSDGLFYLGTIKKINILKQSCFIIFEDSSKSWVLWKDIQTGATGSGEMVCTICQEEYSEAPNEMVICDKCGQGYHQLCHTPHIDSSVIDSDEKWLCRQCVFATTTKRGGALKKGPNAKALQVMKQTLPYSVADLEWDAGHKTNVQQCYCYCGGPGDWYLKMLQCCKCKQWFHEACVQCLQKPMLFGDRFYTFICSVCSSGPEYLKRLPLQWVDIAHLCLYNLSVIHKKKYFDSELELMTYINENWDRLHPGELADTPKSERYEHVLEALNDYKTMFMSGKEIKKKKHLFGLRIRVPPVPPNVAFKAEKEPEGTSHEFKIKGRKASKPTSDSREVSNGIEKKGKKKSVGRPPGPYTRKMIQKTAELPLDKESVSENPTLDLPCSIGRTEGIAHSSNTSDVDLTGASSANETTSASISRHCGLSDSRKRTRTGRSWPAAIPHLRRRRGRLPRRALQTQNSEVVKDDEGKEDYQFEELNTEILNNLADQELQLNHLKNSITSYFGAAGRIACGEKYRVLARRVTLDGKVQYLVEWEGATAS

binding [1]: no binding
B4: JARID2 (endogenous) (protein, UniProt Q62315 1-1234)
chain: T2 chain
